Source: patent US20150125386A1, “HUMANIZED ANTI-CEACAM5 ANTIBODY AND USES THEREOF” (IMMUNOMEDICS, INC., priority 2013, published 2015)
Some of these results come from one statement about several compounds together.

Tested on: GW-39 human colonic tumor
Assay: In vivo therapy of lung metastases of GW-39 human colonic tumors in nude mice
Conditions: 250 μg, q4d×8, therapy initiated 14 days after i.v. tumor injection
Experimental: FIG. 3. Survival curves of hMN14-CL-SN-38 treated mice bearing GW-39 lung metastatic disease.
Alternative immunoconjugates, comprising different linkers between the antibody and the SN-38, were prepared as disclosed in U.S. Pat. No. 7,591,994, the Figures and Examples section of which are incorporated herein by reference. A lung metastatic model of colonic carcinoma was established in nude mice by i.v. injection of GW-39 human colonic tumor suspension, and therapy was initiated 14 days later. Specific anti-CEACAM5 antibody conjugates, hMN14-CL1-SN-38 and hMN14-CL2-SN-38, as well as nontargeting anti-CD22 antibody control conjugates, hLL2-CL1-SN-38 and hLL2-CL2-SN-38 and equidose mixtures of hMN14 and SN-38 were injected at a dose schedule of q4d×8, using different doses. […] The dose-responsiveness of therapeutic effect of conjugated antibody was also observed.

| Substance | median survival |
| --- | --- |
| hMN14-CL1-SN-38: specific anti-CEACAM5 antibody conjugate of SN-38 with CL1 linker | greater than 107 days |
| hMN14-CL2-SN-38: specific anti-CEACAM5 antibody conjugate of SN-38 with CL2 linker | greater than 107 days |
